In PubChem BioAssay AID220 (DTP/NCI, 2004):
The list shows only some results of the screen, not a fair sample: it is rich in T/C values a quarter to a half above the control, in often repeated tests (any T/C) and in doses without a T/C. Other doses and runs of a compound stand elsewhere. T/C is the treated group as % of the vehicle group. Schedule codes are those of the source, read here as Q, the interval in days (D) or hours (H), X, the number of doses. Some T/C values are followed by the survivors on the day toxicity was checked, most often the fifth; where none is given, no animal had died by that day. Some doses have a count of surviving animals in place of a T/C: the source files T/C as zero there, which appears to mark a toxic dose or a test without result, not a measured value. Survivors were counted at the toxicity check, usually on the fifth day, unless a day is given; later deaths do not show. Some molecules as drawn cover several salts, stereoisomers or complexes of the source; a dose is that of the sample tested. Some doses were run more than once; their values stand side by side, smallest first.

Test system: CD8F1 mice, subcutaneous mammary adenocarcinoma, T/C%
Experiment: NCI In Vivo Anticancer Drug Screen. Data for tumor model Mammary Adenocarcinoma CD8F1 (subcutaneous) in CD8F1
Conditions: higher T/C = larger tumour
Summary of the method: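 Ratio of treated to vehicle-control outcome, based on either survival or tumor size, in mice bearing transplantable tumors given the test compound.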

[1] = T/C endpoint: median tumor weight (est.), dose: 200.0 mg/kg/injection, schedule: Q07DX005 (ip), vehicle: Klucel (hydroxypropylcellulose) (HPC)
[2] = T/C endpoint: median tumor weight change, dose: 250.0 mg/kg/injection, schedule: Q01DX001 (ip), vehicle: saline with Tween-80
[3] = T/C endpoint: median tumor weight change, dose: 500.0 mg/kg/injection, schedule: Q01DX001 (ip), vehicle: saline with Tween-80
[4] = T/C endpoint: median tumor weight change, dose: 1000.0 mg/kg/injection, schedule: Q01DX001 (ip), vehicle: saline with Tween-80

## O=C(Nc1ccc(N=C=S)cc1Cl)c1cc(Cl)cc(Cl)c1O
T/C endpoint: median tumor weight (est.), dose: 100.0 mg/kg/injection, schedule: Q07DX005 (ip), vehicle: Klucel (hydroxypropylcellulose) (HPC)
  survivor count: 0 of 10 on day 30
[1]
  survivor count: 0 of 10 on day 30
T/C endpoint: median tumor weight (est.), dose: 200.0 mg/kg/injection, schedule: Q07DX005 (ip), vehicle: saline
  survivor count: 1 of 10 on day 30
T/C endpoint: median tumor weight (est.), dose: 400.0 mg/kg/injection, schedule: Q07DX005 (ip), vehicle: Klucel (hydroxypropylcellulose) (HPC)
  survivor count: 0 of 10 on day 30

## CC1OC(=O)C(C(C)C)NC(=O)C(C(C)C)OC(=O)C(C(C)C)NC(=O)C(C)OC(=O)C(C(C)C)NC(=O)C(C(C)C)OC(=O)C(C(C)C)NC(=O)C(C)OC(=O)C(C(C)C)NC(=O)C(C(C)C)OC(=O)C(C(C)C)NC1=O (centres undefined)
T/C endpoint: median tumor weight (est.), dose: 40.0 mg/kg/injection, schedule: Q07DX005 (ip), vehicle: saline with Tween-80
  survivor count: 0 of 10 on day 30

## CCC1=C2C(=O)c3ccccc3C2=C(C)S(=O)(=O)O1
[2]
  survivor count: 6 of 10 on day 36
[3]
  survivor count: 1 of 10 on day 36

## CC(=O)Nc1ccc(Nc2ccc(C(=C3C=CC(=[N+](C)CCC#N)C=C3)c3ccc(N(C)CCC#N)cc3)cc2)cc1
[2]
  survivor count: 1 of 9 on day 35
[3]
  survivor count: 0 of 10 on day 35
[4]
  survivor count: 0 of 10 on day 35
T/C endpoint: median tumor weight change, dose: 2000.0 mg/kg/injection, schedule: Q01DX001 (ip), vehicle: saline with Tween-80
  survivor count: 0 of 10 on day 35

## O=c1n(CC2CO2)c(=O)n(CC2CO2)n1CC1CO1 (centres undefined)
T/C endpoint: median tumor weight change, dose: 125.0 mg/kg/injection, schedule: Q01DX001 (ip), vehicle: saline
  survivor count: 1 of 10 on day 35
T/C endpoint: median tumor weight change, dose: 250.0 mg/kg/injection, schedule: Q01DX001 (ip), vehicle: saline
  survivor count: 0 of 10 on day 35
T/C endpoint: median tumor weight change, dose: 500.0 mg/kg/injection, schedule: Q01DX001 (ip), vehicle: saline
  survivor count: 0 of 10 on day 35
T/C endpoint: median tumor weight change, dose: 1000.0 mg/kg/injection, schedule: Q01DX001 (ip), vehicle: saline
  survivor count: 0 of 10 on day 35

## O=C(O)[C@H](Cc1ccccc1)N1C(=O)c2ccccc2C1=O
T/C endpoint: median tumor weight change, dose: 1000.0 mg/kg/injection, schedule: Q01DX001 (ip), vehicle: DMSO
  survivor count: 0 of 10 on day 29

## COc1cc(NCc2ccc3nc(N)nc(N)c3c2C)cc(OC)c1OC (tested in a mixture with another compound)
T/C endpoint: median tumor weight (est.), dose: 236.0 mg/kg/injection, schedule: Q07DX005 (ip), vehicle: water
  survivor count: 0 of 10 on day 30
T/C endpoint: median tumor weight (est.), dose: 354.0 mg/kg/injection, schedule: Q07DX005 (ip), vehicle: water
  survivor count: 0 of 10 on day 30

## COc1cc(C(C)(C)C)cc(OC)c1C(O)(c1c(OC)cc(C(C)(C)C)cc1OC)c1c(OC)cc(C(C)(C)C)cc1OC
T/C endpoint: median tumor weight change, dose: 1000.0 mg/kg/injection, schedule: Q01DX001 (ip), vehicle: Klucel (hydroxypropylcellulose) (HPC)
  survivor count: 3 of 10 on day 38
[4]
  survivor count: 4 of 10 on day 32

## Cc1nn(CCO)c(C)c1N=[N+]([O-])c1c(C)nn(CCO)c1C
[1]
  survivor count: 0 of 10 on day 30

## COC1(OC)C2C=CC1CC2
[4]
  survivor count: 1 of 10 on day 36

## O=C1c2ccccc2C(=O)c2c(NCCNCCO)ccc(NCCNCCO)c21
T/C endpoint: median tumor weight (est.), dose: 62.5 mg/kg/injection, schedule: Q07DX005 (ip), vehicle: Klucel (hydroxypropylcellulose) (HPC)
  survivor count: 2 of 10
T/C endpoint: median tumor weight (est.), dose: 64.0 mg/kg/injection, schedule: Q01DX001 (ip), vehicle: water
  survivor count: 5 of 10 on day 33
T/C endpoint: median tumor weight (est.), dose: 64.0 mg/kg/injection, schedule: Q07DX005 (ip), vehicle: water
  survivor count: 3 of 10 and 6 of 10
T/C endpoint: median tumor weight (est.), dose: 125.0 mg/kg/injection, schedule: Q07DX005 (ip), vehicle: Klucel (hydroxypropylcellulose) (HPC)
  survivor count: 2 of 10
T/C endpoint: median tumor weight (est.), dose: 128.0 mg/kg/injection, schedule: Q01DX001 (ip), vehicle: water
  survivor count: 0 of 9 on day 33
T/C endpoint: median tumor weight (est.), dose: 256.0 mg/kg/injection, schedule: Q01DX001 (ip), vehicle: water
  survivor count: 0 of 10 on day 33

## COc1ccc([I+]c2cccc(Cl)c2)cc1Cl
T/C endpoint: median tumor weight (est.), dose: 12.5 mg/kg/injection, schedule: Q07DX005 (ip), vehicle: saline with Tween-80, evaluated on day 30
  T/C: 133 % of control
T/C endpoint: median tumor weight (est.), dose: 100.0 mg/kg/injection, schedule: Q07DX005 (ip), vehicle: saline with Tween-80
  survivor count: 2 of 10
T/C endpoint: median tumor weight (est.), dose: 200.0 mg/kg/injection, schedule: Q07DX005 (ip), vehicle: saline with Tween-80
  survivor count: 1 of 10

## COc1cc(C(=O)c2cocc2C(=O)c2ccc3c(c2)OCO3)cc(OC)c1OC
T/C endpoint: median tumor weight change, dose: 2000.0 mg/kg/injection, schedule: Q01DX001 (ip), vehicle: Klucel (hydroxypropylcellulose) (HPC)
  survivor count: 0 of 10 on day 32

## C[C@H](CCC[C@H](C)OS(=O)(=O)c1ccccc1)OS(=O)(=O)c1ccccc1
T/C endpoint: median tumor weight (est.), dose: 400.0 mg/kg/injection, schedule: Q07DX005 (ip), vehicle: saline with Tween-80
  survivor count: 0 of 10 on day 30
T/C endpoint: median tumor weight (est.), dose: 800.0 mg/kg/injection, schedule: Q07DX005 (ip), vehicle: saline with Tween-80
  survivor count: 0 of 10 on day 30

## S=c1nc[nH]c2nc[nH]c12
T/C endpoint: mean tumor weight (est.), dose: 67.5 mg/kg/injection, schedule: Q07DX005 (ip), vehicle: sodium bicarbonate, evaluated on day 63
  T/C: 136 % of control [8 of 10 alive]
T/C endpoint: mean tumor weight, dose: 35.0 mg/kg/injection, schedule: Q07DX005 (ip), vehicle: saline, evaluated on day 33
  T/C: 136 % of control
T/C endpoint: mean tumor weight, dose: 135.0 mg/kg/injection, schedule: Q07DX006 (ip), vehicle: sodium bicarbonate
  survivor count: 2 of 10
T/C endpoint: mean tumor weight, dose: 135.0 mg/kg/injection, schedule: Q07DX007 (ip), vehicle: saline
  survivor count: 6 of 10
T/C endpoint: median tumor weight (est.), dose: 12.5 mg/kg/injection, schedule: Q07DX005 (ip), vehicle: Klucel (hydroxypropylcellulose) (HPC), evaluated on day 30
  T/C: 131 % of control

## C[N+](C)(C)c1cc2c(nn1)Nc1ccccc1S2
T/C endpoint: median tumor weight (est.), dose: 6.25 mg/kg/injection, schedule: Q07DX005 (ip), vehicle: Klucel (hydroxypropylcellulose) (HPC), evaluated on day 32
  T/C: 143 % of control
[1]
  survivor count: 3 of 10 on day 32

## C/C=C1\C[C@@H]2C(OC)Nc3cc(O)c(OC)cc3C(=O)N2C1 (some centres undefined)
T/C endpoint: median tumor weight change, dose: 2.5 mg/kg/injection, schedule: Q01DX001 (ip), vehicle: suspension in saline
  survivor count: 1 of 10 on day 31
T/C endpoint: median tumor weight change, dose: 5.0 mg/kg/injection, schedule: Q01DX001 (ip), vehicle: suspension in saline
  survivor count: 0 of 10 on day 31

## Nc1nc2nc[nH]c2c(=O)[nH]1
T/C endpoint: median tumor weight (est.), dose: 400.0 mg/kg/injection, schedule: Q07DX005 (ip), vehicle: suspension in saline
  survivor count: 0 of 10 on day 30
